# Laboratory results taken from the supplement of paper PMC6411743.
# ± gives the standard deviation of the averaged measurements. Some of the results follow.
# Assays:
# Assay in all cases: NP40-soluble protein abundance relative to vehicle (solubility fold change) (ratio); higher = more soluble protein in presence of GTP
# HADHB = target: T1, HADHB (UniProt P55084)
# T1 sequence (whole entry): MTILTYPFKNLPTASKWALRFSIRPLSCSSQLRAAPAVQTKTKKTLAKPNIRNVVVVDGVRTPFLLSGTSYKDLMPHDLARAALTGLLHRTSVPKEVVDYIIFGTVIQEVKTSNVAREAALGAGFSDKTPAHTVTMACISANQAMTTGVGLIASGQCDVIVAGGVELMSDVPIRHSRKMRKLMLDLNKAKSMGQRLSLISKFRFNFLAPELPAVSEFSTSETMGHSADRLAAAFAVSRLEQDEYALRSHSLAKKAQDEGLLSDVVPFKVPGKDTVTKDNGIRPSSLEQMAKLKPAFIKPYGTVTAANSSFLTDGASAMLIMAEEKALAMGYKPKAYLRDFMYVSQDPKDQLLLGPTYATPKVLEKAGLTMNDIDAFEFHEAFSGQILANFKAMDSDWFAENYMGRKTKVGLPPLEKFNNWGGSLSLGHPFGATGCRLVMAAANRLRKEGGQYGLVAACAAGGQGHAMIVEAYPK
# How it was run: (§1)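 Values are fold changes against the detergent-processed vehicle, based on vsn-normalised intensities. Jurkat crude lysate was treated at eight concentrations from 0.1 to 10 mM (10 min at room temperature, then 3 min at 37 °C), solubilised with 0.8% NP40 and benzonase, ultracentrifuged and analysed by TMT-labelled LC-MS/MS over three independent experiments.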
# HNRNPF = target: T2, HNRNPF (UniProt P52597)
# T2 sequence (whole entry): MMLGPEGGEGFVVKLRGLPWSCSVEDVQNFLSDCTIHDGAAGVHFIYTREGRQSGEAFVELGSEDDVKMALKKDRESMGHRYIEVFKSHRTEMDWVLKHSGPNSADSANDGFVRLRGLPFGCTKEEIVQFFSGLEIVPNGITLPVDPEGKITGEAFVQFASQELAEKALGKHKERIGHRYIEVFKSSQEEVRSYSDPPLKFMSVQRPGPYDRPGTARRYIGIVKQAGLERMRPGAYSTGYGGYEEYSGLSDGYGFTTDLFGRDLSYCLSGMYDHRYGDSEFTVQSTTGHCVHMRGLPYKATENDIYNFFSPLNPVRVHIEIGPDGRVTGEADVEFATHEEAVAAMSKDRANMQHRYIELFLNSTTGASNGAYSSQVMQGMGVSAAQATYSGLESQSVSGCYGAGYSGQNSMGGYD
# How it was run: as §1
# SARNP = target: T3, SARNP (UniProt P82979)
# T3 sequence (whole entry): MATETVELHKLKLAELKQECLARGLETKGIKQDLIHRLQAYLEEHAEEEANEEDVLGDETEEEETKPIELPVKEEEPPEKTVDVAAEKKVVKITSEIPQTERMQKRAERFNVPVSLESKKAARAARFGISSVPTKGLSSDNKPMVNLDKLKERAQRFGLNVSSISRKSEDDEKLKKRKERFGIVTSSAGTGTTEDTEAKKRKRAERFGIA
# How it was run: as §1
# SLC12A2 = target: T4, SLC12A2 (UniProt P55011)
# T4 sequence (whole entry): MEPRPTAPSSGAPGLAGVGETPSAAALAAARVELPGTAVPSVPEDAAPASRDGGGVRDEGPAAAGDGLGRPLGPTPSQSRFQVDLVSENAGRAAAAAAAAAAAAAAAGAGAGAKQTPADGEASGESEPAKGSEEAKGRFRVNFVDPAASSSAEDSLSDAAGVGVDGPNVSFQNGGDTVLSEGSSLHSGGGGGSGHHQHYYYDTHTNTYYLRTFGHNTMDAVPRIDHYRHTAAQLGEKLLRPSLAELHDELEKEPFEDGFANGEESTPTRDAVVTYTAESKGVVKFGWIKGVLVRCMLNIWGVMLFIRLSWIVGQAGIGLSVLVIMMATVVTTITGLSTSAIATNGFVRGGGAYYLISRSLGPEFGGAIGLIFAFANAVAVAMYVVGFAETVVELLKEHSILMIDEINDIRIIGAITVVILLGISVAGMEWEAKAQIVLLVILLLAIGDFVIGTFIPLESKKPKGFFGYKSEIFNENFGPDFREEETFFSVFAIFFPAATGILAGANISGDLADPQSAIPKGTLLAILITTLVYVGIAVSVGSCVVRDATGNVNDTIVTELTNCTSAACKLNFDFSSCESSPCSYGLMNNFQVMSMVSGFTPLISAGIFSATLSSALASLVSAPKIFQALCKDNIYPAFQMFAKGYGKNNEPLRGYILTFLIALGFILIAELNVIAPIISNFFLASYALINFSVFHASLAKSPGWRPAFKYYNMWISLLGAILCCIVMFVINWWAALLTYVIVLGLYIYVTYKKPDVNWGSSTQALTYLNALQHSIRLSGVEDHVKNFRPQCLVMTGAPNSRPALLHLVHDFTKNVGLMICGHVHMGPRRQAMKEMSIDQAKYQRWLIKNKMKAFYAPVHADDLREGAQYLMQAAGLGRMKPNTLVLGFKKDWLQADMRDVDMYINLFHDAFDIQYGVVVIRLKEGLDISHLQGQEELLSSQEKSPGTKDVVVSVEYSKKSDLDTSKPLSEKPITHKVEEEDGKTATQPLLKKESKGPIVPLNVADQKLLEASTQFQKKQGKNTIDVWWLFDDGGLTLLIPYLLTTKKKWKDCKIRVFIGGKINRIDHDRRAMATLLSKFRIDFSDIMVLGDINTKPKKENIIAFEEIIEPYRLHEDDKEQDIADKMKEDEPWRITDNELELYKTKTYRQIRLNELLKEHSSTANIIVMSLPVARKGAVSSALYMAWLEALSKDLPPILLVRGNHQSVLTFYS
# How it was run: as §1
# [1] = target: T5, UniProt P52594 and related entries
# T5 sequence (whole entry): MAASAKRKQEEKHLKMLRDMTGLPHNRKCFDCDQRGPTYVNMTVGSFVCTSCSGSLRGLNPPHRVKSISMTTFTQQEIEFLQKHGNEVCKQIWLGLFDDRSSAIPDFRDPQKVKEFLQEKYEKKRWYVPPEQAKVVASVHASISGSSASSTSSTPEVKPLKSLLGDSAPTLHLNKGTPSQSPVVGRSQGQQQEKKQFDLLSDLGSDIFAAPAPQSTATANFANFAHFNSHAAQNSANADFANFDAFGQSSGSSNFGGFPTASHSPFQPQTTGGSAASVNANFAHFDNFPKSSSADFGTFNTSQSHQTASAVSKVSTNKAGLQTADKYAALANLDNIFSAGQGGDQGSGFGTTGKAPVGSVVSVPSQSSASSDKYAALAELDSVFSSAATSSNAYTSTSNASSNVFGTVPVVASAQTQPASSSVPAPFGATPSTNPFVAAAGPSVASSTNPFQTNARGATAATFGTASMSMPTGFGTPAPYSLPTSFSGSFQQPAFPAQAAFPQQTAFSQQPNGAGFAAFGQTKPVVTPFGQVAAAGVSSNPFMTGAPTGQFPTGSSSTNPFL
# How it was run: as §1
# [2] = target: T6, UniProt P54278 and related entries
# T6 sequence (whole entry): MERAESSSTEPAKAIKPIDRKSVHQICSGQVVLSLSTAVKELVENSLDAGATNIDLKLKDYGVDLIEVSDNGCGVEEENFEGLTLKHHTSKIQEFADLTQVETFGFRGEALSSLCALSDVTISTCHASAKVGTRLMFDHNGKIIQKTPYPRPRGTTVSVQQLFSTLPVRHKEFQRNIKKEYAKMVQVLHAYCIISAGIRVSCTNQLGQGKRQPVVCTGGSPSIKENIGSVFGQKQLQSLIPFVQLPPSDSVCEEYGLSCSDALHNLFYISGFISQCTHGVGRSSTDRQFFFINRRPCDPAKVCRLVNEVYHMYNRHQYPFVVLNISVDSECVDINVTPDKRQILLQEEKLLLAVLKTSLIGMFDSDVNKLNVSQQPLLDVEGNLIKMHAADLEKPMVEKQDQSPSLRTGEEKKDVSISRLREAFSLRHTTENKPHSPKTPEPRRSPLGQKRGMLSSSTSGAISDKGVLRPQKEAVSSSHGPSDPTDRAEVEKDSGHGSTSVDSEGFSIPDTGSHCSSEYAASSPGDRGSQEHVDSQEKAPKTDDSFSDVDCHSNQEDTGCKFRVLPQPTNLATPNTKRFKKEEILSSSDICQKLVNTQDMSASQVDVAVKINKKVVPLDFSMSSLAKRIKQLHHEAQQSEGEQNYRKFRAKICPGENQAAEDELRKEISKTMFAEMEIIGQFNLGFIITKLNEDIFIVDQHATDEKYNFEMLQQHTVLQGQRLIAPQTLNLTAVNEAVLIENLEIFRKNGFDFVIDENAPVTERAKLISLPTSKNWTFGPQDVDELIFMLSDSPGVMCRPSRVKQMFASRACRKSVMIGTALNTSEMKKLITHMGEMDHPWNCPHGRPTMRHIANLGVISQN
# How it was run: as §1
# [3] = target: T7, UniProt P54725 and related entries
# T7 sequence (whole entry): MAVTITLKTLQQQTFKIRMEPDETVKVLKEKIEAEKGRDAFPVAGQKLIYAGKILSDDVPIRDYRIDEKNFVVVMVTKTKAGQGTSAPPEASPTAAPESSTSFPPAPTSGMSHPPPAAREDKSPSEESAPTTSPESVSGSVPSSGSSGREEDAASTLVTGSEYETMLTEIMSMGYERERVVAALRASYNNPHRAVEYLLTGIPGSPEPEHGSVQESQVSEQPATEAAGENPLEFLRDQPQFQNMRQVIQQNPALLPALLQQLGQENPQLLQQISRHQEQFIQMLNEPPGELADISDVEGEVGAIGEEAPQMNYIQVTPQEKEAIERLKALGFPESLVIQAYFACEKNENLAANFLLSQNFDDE
# How it was run: as §1
smiles,measurement,setting,value
Nc1nc2c(ncn2[C@@H]2O[C@H](COP(=O)(O)OP(=O)(O)OP(=O)(O)O)[C@@H](O)[C@H]2O)c(=O)[nH]1 [guanosine triphosphate],NP40-soluble protein abundance,HADHB; concentration: 0.1mM,0.996 ± 0.013
same,NP40-soluble protein abundance,HADHB; concentration: 0.5mM,1.02 ± 0.036
same,NP40-soluble protein abundance,HADHB; concentration: 1mM,0.972 ± 0.033
same,NP40-soluble protein abundance,HADHB; concentration: 2mM,0.983 ± 0.042
same,NP40-soluble protein abundance,HADHB; concentration: 4mM,1.01 ± 0.092
same,NP40-soluble protein abundance,HADHB; concentration: 6mM,0.99 ± 0.095
same,NP40-soluble protein abundance,HADHB; concentration: 8mM,0.991 ± 0.079
same,NP40-soluble protein abundance,HADHB; concentration: 10mM,0.988 ± 0.062
same,NP40-soluble protein abundance,HNRNPF; concentration: 0.1mM,0.985 ± 0.025
same,NP40-soluble protein abundance,HNRNPF; concentration: 0.5mM,0.977 ± 0.024
same,NP40-soluble protein abundance,HNRNPF; concentration: 1mM,0.939 ± 0.013
same,NP40-soluble protein abundance,HNRNPF; concentration: 2mM,0.894 ± 0.014
same,NP40-soluble protein abundance,HNRNPF; concentration: 4mM,0.878 ± 0.018
same,NP40-soluble protein abundance,HNRNPF; concentration: 6mM,0.904 ± 0.019
same,NP40-soluble protein abundance,HNRNPF; concentration: 8mM,0.876 ± 0.04
same,NP40-soluble protein abundance,HNRNPF; concentration: 10mM,0.838 ± 0.044
same,NP40-soluble protein abundance,SARNP; concentration: 0.1mM,0.796 ± 0.018
same,NP40-soluble protein abundance,SARNP; concentration: 0.5mM,0.782 ± 0.11
same,NP40-soluble protein abundance,SARNP; concentration: 1mM,0.867 ± 0.029
same,NP40-soluble protein abundance,SARNP; concentration: 2mM,0.892 ± 0.14
same,NP40-soluble protein abundance,SARNP; concentration: 4mM,0.926 ± 0.12
same,NP40-soluble protein abundance,SARNP; concentration: 6mM,0.994 ± 0.17
same,NP40-soluble protein abundance,SARNP; concentration: 8mM,0.992 ± 0.12
same,NP40-soluble protein abundance,SARNP; concentration: 10mM,1.03 ± 0.12
same,NP40-soluble protein abundance,SLC12A2; concentration: 0.1mM,0.98 ± 0.041
same,NP40-soluble protein abundance,SLC12A2; concentration: 0.5mM,1.01 ± 0.06
same,NP40-soluble protein abundance,SLC12A2; concentration: 1mM,0.981 ± 0.033
same,NP40-soluble protein abundance,SLC12A2; concentration: 2mM,0.956 ± 0.021
same,NP40-soluble protein abundance,SLC12A2; concentration: 4mM,0.959 ± 0.024
same,NP40-soluble protein abundance,SLC12A2; concentration: 6mM,0.965 ± 0.035
same,NP40-soluble protein abundance,SLC12A2; concentration: 8mM,0.978 ± 0.049
same,NP40-soluble protein abundance,SLC12A2; concentration: 10mM,0.967 ± 0.02
same,NP40-soluble protein abundance,[1]; concentration: 0.1mM,0.924 ± 0.047
same,NP40-soluble protein abundance,[1]; concentration: 0.5mM,0.921 ± 0.019
same,NP40-soluble protein abundance,[1]; concentration: 1mM,0.895 ± 0.038
same,NP40-soluble protein abundance,[1]; concentration: 2mM,0.902 ± 0.059
same,NP40-soluble protein abundance,[1]; concentration: 4mM,0.853 ± 0.088
same,NP40-soluble protein abundance,[1]; concentration: 6mM,0.879 ± 0.082
same,NP40-soluble protein abundance,[1]; concentration: 8mM,0.819 ± 0.052
same,NP40-soluble protein abundance,[1]; concentration: 10mM,0.882 ± 0.05
same,NP40-soluble protein abundance,[2]; concentration: 0.1mM,1.13 ± 0.043
same,NP40-soluble protein abundance,[2]; concentration: 0.5mM,1.2 ± 0.11
same,NP40-soluble protein abundance,[2]; concentration: 1mM,1.15 ± 0.11
same,NP40-soluble protein abundance,[2]; concentration: 2mM,1.15 ± 0.11
same,NP40-soluble protein abundance,[2]; concentration: 4mM,1.14 ± 0.085
same,NP40-soluble protein abundance,[2]; concentration: 6mM,1.15 ± 0.073
same,NP40-soluble protein abundance,[2]; concentration: 8mM,1.15 ± 0.12
same,NP40-soluble protein abundance,[2]; concentration: 10mM,1.12 ± 0.14
same,NP40-soluble protein abundance,[3]; concentration: 0.1mM,0.869 ± 0.054
same,NP40-soluble protein abundance,[3]; concentration: 0.5mM,0.832 ± 0.042
same,NP40-soluble protein abundance,[3]; concentration: 1mM,0.954 ± 0.049
same,NP40-soluble protein abundance,[3]; concentration: 2mM,0.953 ± 0.062
same,NP40-soluble protein abundance,[3]; concentration: 4mM,0.933 ± 0.038
same,NP40-soluble protein abundance,[3]; concentration: 6mM,0.912 ± 0.079
same,NP40-soluble protein abundance,[3]; concentration: 8mM,0.904 ± 0.12
same,NP40-soluble protein abundance,[3]; concentration: 10mM,0.977 ± 0.054

# 2 entries from above, tab-delimited:
smiles	measurement	setting	value
Nc1nc2c(ncn2[C@@H]2O[C@H](COP(=O)(O)OP(=O)(O)OP(=O)(O)O)[C@@H](O)[C@H]2O)c(=O)[nH]1 [guanosine triphosphate]	NP40-soluble protein abundance	HADHB; concentration: 6mM	0.99 ± 0.095
same	NP40-soluble protein abundance	HADHB; concentration: 8mM	0.991 ± 0.079
